The list shows a part of the results. The main result of the screen is listed elsewhere. These columns were measured beside it and carry no call. Compounds called inactive in the main read-out are mostly missing here. Potencies come from curve fits of mixed quality, noted in brackets.
Assay: qHTS Assay for Lipid Storage Modulators in Drosophila S3 Cells;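 for cell number change: cells counted by Cell Tracker Red CMTPX staining in the red channel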
Settings: BODIPY lipid droplet fluorescence, 18-24 h; for cell number change: measured here: cell count max response, cells fed with added oleic acid
In short: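 Drosophila S3 cells loaded with oleic acid (400 uM, as added) and compounds at several concentrations; lipid droplets imaged by 488-nm laser-scanning cytometry, 500–530 nm intensity and object ratio to cell channel. Percent activity normalized to 20 uM Triacsin C.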

[1] = measured here: lipid fluorescence (Fed channel) AC50, cells fed with added oleic acid
[2] = measured here: cell number channel AC50, cells fed with added oleic acid

SMILES	cell number change [%]	AC50 [1]	AC50 [2]
CCCCNC(=O)C(c1ccc(OCC(=O)OC)c(C(=O)OC)c1)N(CCc1c[nH]c2ccccc12)C(=O)CCCCCN1C(=O)NC(c2ccc(-c3ccccc3)cc2)C(C(=O)OCc2ccccc2)=C1C (stereo unspecified)	10.8	1.84 µM [rising, full curve, poor fit]	–
O=C(c1ccccc1)c1ccc(C(=O)N2CCOCC2)cc1	4.27	–	–
CC(C)CN(C(=O)COC(=O)c1cc2ccccc2oc1=O)C1CCS(=O)(=O)C1 (stereo unspecified)	1.49	0.00517 µM [falling, full curve, poor fit]	–
COc1ccc(NC(=O)Cn2nnc(C(N)=O)c2N)c(OC)c1	-14.4	29.1 µM [falling, single point]	–
COc1cccc(CNC(=O)Cc2ccc(-c3ccccc3)cc2)c1	11.5	–	–
CNC(=S)NC1(C)CCS(=O)(=O)C1 (stereo unspecified)	-17.8	0.82 µM [falling, full curve, poor fit]	–
COc1ccc(CN2CC(C(=O)NCc3ccc4c(c3)OCO4)CC2=O)cc1 (stereo unspecified)	10.6	0.82 µM [falling, full curve, poor fit]	–
CCNC(=O)Nc1ccc(OC)cc1OC	-22.2	–	–
CC1(C)CC(=O)c2c(oc3cc(O)c(O)cc23)C1	-17	–	6.51 µM [falling, single point]
CSc1cc(-c2ccccc2)n(Cc2ccccc2Cl)c(=O)c1C#N	–	–	1.84 µM [rising, partial curve]
Cc1ccc(-n2ncc(Cl)c2C(=O)NCc2ccccc2)cc1	3.98	6.51 µM [rising, single point]	–
O=C(N/N=C/c1ccc[nH]1)c1cc(-c2cccs2)nc2ccccc12	-33.4	–	–
Cc1cc(NC(=O)CCCN2C(=O)c3cccc4cccc(c34)C2=O)no1	32	32.6 µM [rising, partial curve]	–
CCOc1cccc(NC(=O)C2CCCN(S(=O)(=O)c3ccc(OC)cc3)C2)c1 (stereo unspecified)	–	7.31 µM [falling, partial curve]	–
COc1ccc(S(=O)(=O)N2CCCC(C(=O)Nc3ccc(NC(=O)c4ccccn4)cc3)C2)cc1 (stereo unspecified)	-8.81	–	–
Cc1ccc(Oc2coc3cc(O)ccc3c2=O)cc1	-16.1	–	–
CCN(CC)S(=O)(=O)c1ccc(NC(=O)c2cnc(C)cn2)cc1	1.46	–	–
c1ccc(-c2c3ccccc3nc3[nH]c4ccccc4c23)cc1	-15.9	4.61 µM [rising, partial curve]	–
CN(c1ccccc1)c1ccc(/C=N/N2CCOCC2)cc1	45.7	6.51 µM [rising, single point]	29.1 µM [rising, single point]
CC(=O)c1ccc(NC(=O)CN2C(=O)CCC2=O)cc1	-5.41	–	–
CCCCCCn1c(=O)[nH]c2nc3cc(N)ccc3nc2c1=O	-101	16.4 µM [falling, partial curve]	20.6 µM [falling, single point]

SMILES	cell number change [%]	AC50 [1]	AC50 [2]
O=C(COc1ccccc1[N+](=O)[O-])N(Cc1ccccc1)c1ccccn1	12	0.116 µM [falling, full curve, poor fit]	–
COC(=O)C1=C(C)NC(=O)NC1c1ccco1 (stereo unspecified)	–	0.517 µM [falling, single point]	–
O=C(Nc1ncn[nH]1)c1cc(S(=O)(=O)Nc2ccc(Cl)cc2)ccc1Cl	-0.0814	6.51 µM [rising, partial curve, poor fit]	–
C=CCC(C#Cc1ccccc1)N(C)C (stereo unspecified)	2.92	–	–
Cc1ccc(NC(=O)COc2ccc(/C=C3/NC(=O)NC3=O)cc2)cc1	31.9	0.00461 µM [rising, full curve, poor fit]	–
COc1ccc(S(=O)(=O)N2c3ccccc3OCC2C(C)(C)C)cc1 (stereo unspecified)	9	–	–
COC(=O)CSc1nnc(C)n1-c1ccc(C)cc1	-12.7	–	0.0411 µM [falling, full curve, poor fit]
C[C@H](NC(=O)c1nc[nH]c1C(=O)NCCCCCN)C(=O)OCc1ccccc1	-19.5	0.411 µM [falling, single point]	–
Cc1cccc(C(=O)OCC(=O)NC2CCCCCCC2)c1	-7.52	2.31 µM [rising, single point]	–
COC(=O)c1cc(CSc2nnc(-c3ccccc3)c(-c3ccccc3)n2)oc1C	-34.1	–	23.1 µM [falling, single point]
Cc1nc(=O)c(-c2ccccc2)c(C)n1-c1ccccc1O	-33.4	1.03 µM [falling, full curve, poor fit]	0.116 µM [falling, full curve]
c1coc(-c2nnc(NC3=NCCC3)o2)c1	-185	29.1 µM [falling, partial curve]	25.9 µM [falling, partial curve]
Cc1nc(NCCc2ccc(F)cc2)c2nnn(Cc3ccccc3)c2n1	-15.4	–	–
CCOC(=O)Cc1csc(SCc2nc3ccccc3c(=O)[nH]2)n1	24	–	0.231 µM [rising, full curve, poor fit]
O=C(CNC(=O)c1ccco1)OCc1cccc(Cl)c1	-0.0749	0.411 µM [falling, single point]	–
CCOC(=O)C(=Cc1c[nH]c2ccc(S(=O)(=O)N(C)C)cc12)C(=O)OCC	9.55	–	0.92 µM [rising, partial curve]
COc1ccc(-c2nn(-c3ccccc3)cc2C(=O)N(C)C)cc1	28.4	29.1 µM [rising, single point]	4.11 µM [rising, full curve, poor fit]
COc1nc(NCc2cccnc2)nc(OC)n1	-20	32.6 µM [falling, partial curve]	3.66 µM [falling, single point]
Cn1cnnc1SCC(=O)Nc1ccc(Cl)cn1	-10.3	–	7.31 µM [falling, single point]
COc1ccc(C(=O)N2CCN(c3ccccc3OC)CC2)cc1	13.7	1.16 µM [rising, full curve, poor fit]	–
CS(=O)(=O)N(CC(=O)N1CCN(Cc2ccc3c(c2)OCO3)CC1)c1ccc2c(c1)OCO2	-8.79	6.51 µM [rising, single point]	–

Some of the entries above in a different format.
Cc1ccc(NC(=O)COc2ccc(/C=C3/NC(=O)NC3=O)cc2)cc1
  cell number change [%]: 31.9; AC50 [1]: 0.00461 µM [rising, full curve, poor fit]
COc1ccc(S(=O)(=O)N2c3ccccc3OCC2C(C)(C)C)cc1 (stereo unspecified)
  cell number change [%]: 9

— PubChem BioAssay AID2685 (National Center for Advancing Translational Sciences (NCATS), 2010)
